From patent publication US11492386B2, “Parathyroid hormone-anti-RANKL antibody fusion compounds” (Eli Lilly and Company, priority 2016, dated 2022)
For at least one compound, name, drawing or mass did not settle the structure.

Biological target: T1, PTHR1 receptor (Rattus norvegicus, UniProt P25961)
T1 construct: Rat osteosarcoma UMR-106 cells (ATCC, p/n.CRL-1661) which endogenously express PTH receptor; host or cells: rat osteosarcoma UMR-106 cells, stably co-transfected only with a CRE luciferase reporter and pEGFP-N1
T1 sequence (P25961 27-591): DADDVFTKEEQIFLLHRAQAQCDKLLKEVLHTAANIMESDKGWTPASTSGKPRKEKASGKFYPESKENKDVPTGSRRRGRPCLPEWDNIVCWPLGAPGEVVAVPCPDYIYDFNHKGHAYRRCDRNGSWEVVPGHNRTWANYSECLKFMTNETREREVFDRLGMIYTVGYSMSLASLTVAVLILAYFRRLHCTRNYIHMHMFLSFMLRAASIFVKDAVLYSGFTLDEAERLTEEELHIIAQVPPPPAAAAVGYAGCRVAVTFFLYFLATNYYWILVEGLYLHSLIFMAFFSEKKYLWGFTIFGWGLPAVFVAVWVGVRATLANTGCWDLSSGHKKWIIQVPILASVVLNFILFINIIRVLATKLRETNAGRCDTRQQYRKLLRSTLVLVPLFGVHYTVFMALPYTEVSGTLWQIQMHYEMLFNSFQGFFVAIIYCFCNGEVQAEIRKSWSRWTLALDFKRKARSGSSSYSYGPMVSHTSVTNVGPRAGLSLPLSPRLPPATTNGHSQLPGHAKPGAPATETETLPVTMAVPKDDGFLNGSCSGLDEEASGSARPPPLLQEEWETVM
Assay: Activation of PTHR1 receptor-induced CRE luciferase activity in UMR-106 cells
Assay type: cell-based
Conditions: CRE luciferase reporter

CC[C@H](C)[C@H](NC(=O)[C@H](CCC(=O)O)NC(=O)[C@H](CO)NC(=O)[C@@H](NC(=O)[C@@H](N)CO)C(C)C)C(=O)N[C@@H](CCC(N)=O)C(=O)N[C@@H](CC(C)C)C(=O)N[C@@H](CCSC)C(=O)N[C@@H](Cc1c[nH]cn1)C(=O)N[C@@H](CC(N)=O)C(=O)N[C@@H](CC(C)C)C(=O)NCC(=O)N[C@@H](CCCCN)C(=O)N[C@@H](Cc1c[nH]cn1)C(=O)N[C@@H](CC(C)C)C(=O)N[C@@H](CC(N)=O)C(=O)N[C@@H](CO)C(=O)N[C@@H](CCSC)C(=O)N[C@@H](CCC(=O)O)C(=O)N[C@@H](CCCNC(=N)N)C(=O)N[C@H](C(=O)N[C@@H](CCC(=O)O)C(=O)N[C@@H](Cc1c[nH]c2ccccc12)C(=O)N[C@@H](CC(C)C)C(=O)N[C@@H](CCCNC(=N)N)C(=O)N[C@@H](CCCCN)C(=O)N[C@@H](CCCCN)C(=O)N[C@@H](CC(C)C)C(=O)N[C@@H](CCC(N)=O)C(=O)N[C@@H](CC(=O)O)C(=O)N[C@H](C(=O)N[C@@H](Cc1c[nH]cn1)C(=O)N[C@@H](CC(N)=O)C(=O)N[C@@H](Cc1ccccc1)C(=O)N[C@H](C(=O)N[C@@H](C)C(=O)N[C@@H](CC(C)C)C(=O)NCC(=O)O)C(C)C)C(C)C)C(C)C [PTH Peptide, reference compound]
EC50: 5.6 nM
